Laboratory results taken from publication PMC4726654.
No constants are given. Whether binding was seen depends on the method and setting. Binding seen in cells or lysates may run through a third protein. Some binding calls cover weakened binding; strength is not graded here.

Biological target: T1, Tudor-SN (Tudor staphylococcal nuclease) (Drosophila melanogaster (endogenous in 0-12 h w1118 embryos)) (UniProt Q9W0S7)
T1 sequence: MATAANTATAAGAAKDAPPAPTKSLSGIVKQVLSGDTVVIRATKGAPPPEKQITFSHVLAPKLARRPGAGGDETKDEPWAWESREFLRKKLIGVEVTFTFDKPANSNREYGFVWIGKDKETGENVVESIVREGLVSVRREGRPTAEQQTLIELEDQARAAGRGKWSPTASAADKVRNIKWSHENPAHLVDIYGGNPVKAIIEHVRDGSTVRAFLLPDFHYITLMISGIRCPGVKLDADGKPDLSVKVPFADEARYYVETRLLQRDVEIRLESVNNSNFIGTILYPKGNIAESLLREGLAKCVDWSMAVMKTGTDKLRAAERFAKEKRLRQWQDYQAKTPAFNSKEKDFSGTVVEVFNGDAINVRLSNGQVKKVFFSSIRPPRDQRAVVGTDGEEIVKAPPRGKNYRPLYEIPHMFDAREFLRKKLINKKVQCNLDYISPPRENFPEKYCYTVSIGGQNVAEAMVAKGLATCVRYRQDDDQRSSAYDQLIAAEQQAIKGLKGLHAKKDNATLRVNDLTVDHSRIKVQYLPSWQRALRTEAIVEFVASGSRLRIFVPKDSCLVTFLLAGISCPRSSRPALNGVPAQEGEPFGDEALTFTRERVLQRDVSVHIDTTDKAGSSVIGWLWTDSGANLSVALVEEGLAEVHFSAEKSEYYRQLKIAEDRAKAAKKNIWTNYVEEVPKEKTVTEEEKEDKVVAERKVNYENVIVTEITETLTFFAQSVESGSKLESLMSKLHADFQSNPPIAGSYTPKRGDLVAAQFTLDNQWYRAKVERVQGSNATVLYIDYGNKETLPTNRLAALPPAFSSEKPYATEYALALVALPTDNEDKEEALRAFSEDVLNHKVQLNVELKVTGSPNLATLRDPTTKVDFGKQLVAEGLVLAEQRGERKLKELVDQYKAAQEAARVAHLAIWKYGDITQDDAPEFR
Experiment: co-IP; cytoplasmic extract of 0-12 h w1118 embryos, 1 mg protein in 1 ml H(0.15) buffer (25 mM HEPES-NaOH pH 7.8, 150 mM NaCl, 0.02% NP-40, 20% glycerol), 4°C; monoclonal mouse anti-Piwi or anti-TSN antibody, Protein A/G agarose; Western blot; IgG as control

B1: Piwi (protein, UniProt Q9VKM1 1-843)
chain: MADDQGRGRRRPLNEDDSSTSRGSGDGPRVKVFRGSSSGDPRADPRIEASRERRALEEAPRREGGPTERKPWGDQYDYLNTRPAELVSKKGTDGVPVMLQTNFFRLKTKPEWRIVHYHVEFEPSIENPRVRMGVLSNHANLLGSGYLFDGLQLFTTRKFEQEITVLSGKSKLDIEYKISIKFVGFISCAEPRFLQVLNLILRRSMKGLNLELVGRNLFDPRAKIEIREFKMELWPGYETSIRQHEKDILLGTEITHKVMRTETIYDIMRRCSHNPARHQDEVRVNVLDLIVLTDYNNRTYRINDVDFGQTPKSTFSCKGRDISFVEYYLTKYNIRIRDHNQPLLISKNRDKALKTNASELVVLIPELCRVTGLNAEMRSNFQLMRAMSSYTRMNPKQRTDRLRAFNHRLQNTPESVKVLRDWNMELDKNVTEVQGRIIGQQNIVFHNGKVPAGENADWQRHFRDQRMLTTPSDGLDRWAVIAPQRNSHELRTLLDSLYRAASGMGLRIRSPQEFIIYDDRTGTYVRAMDDCVRSDPKLILCLVPNDNAERYSSIKKRGYVDRAVPTQVVTLKTTKNRSLMSIATKIAIQLNCKLGYTPWMIELPLSGLMTIGFDIAKSTRDRKRAYGALIASMDLQQNSTYFSTVTECSAFDVLANTLWPMIAKALRQYQHEHRKLPSRIVFYRDGVSSGSLKQLFEFEVKDIIEKLKTEYARVQLSPPQLAYIVVTRSMNTRFFLNGQNPPPGTIVDDVITLPERYDFYLVSQQVRQGTVSPTSYNVLYSSMGLSPEKMQKLTYKMCHLYYNWSGTTRVPAVCQYAKKLATLVGTNLHSIPQNALEKKFYYL
In the case of B1, the binding is reported as “binds”.
